Values quoted from earlier work in patent US20200368322A1, “METHODS OF IDENTIFYING AND USING AGENTS FOR TREATING DISEASES ASSOCIATED WITH INTESTINAL BARRIER DYSFUNCTION” (Yeda Research and Development Co. Ltd., priority 2018, published 2020).

Conditions: metabolite abundance, diseased vs healthy mice (Levy M. et al. Cell 2015); cited from earlier work

First: NCCCCN [putrescine]
Second: NCCCNCCCCNCCCN [spermine]
The diseased/healthy ratio of the first is higher: 145.2 for the first, 15.7 for the second.

Going from NCCc1c[nH]c2ccccc12 [tryptamine] to NCCc1c[nH]cn1 [histamine], the diseased/healthy ratio rises from 0.08 to 44.18.

Going from N[C@@H](CCO)C(=O)O [L-homoserine] to CC(=O)N1CCC[C@H]1C(=O)O [N-acetylproline], the diseased/healthy ratio rises from 0.49 to 16.58.
